The target in assay [1] is T1, Ctf18 C-terminus (residues 666-741) (S. cerevisiae) (UniProt P49956).
T1 sequence: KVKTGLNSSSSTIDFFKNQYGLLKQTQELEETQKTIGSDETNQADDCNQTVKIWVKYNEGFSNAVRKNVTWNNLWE
As to the kind of experiment: crystal structure; Ctf18^C-Dcc1-Ctf8 heterotrimer, co-expressed in E. coli and purified as a complex; crystals in 0.1 M Bis-Tris propane pH 6.3, 0.2 M NaBr, 17% PEG 3350, 20°C; 2.4 Å; both purified.

Assay [2] concerns the target T2, Dcc1 (full length) (S. cerevisiae) (UniProt P25559).
T2 sequence: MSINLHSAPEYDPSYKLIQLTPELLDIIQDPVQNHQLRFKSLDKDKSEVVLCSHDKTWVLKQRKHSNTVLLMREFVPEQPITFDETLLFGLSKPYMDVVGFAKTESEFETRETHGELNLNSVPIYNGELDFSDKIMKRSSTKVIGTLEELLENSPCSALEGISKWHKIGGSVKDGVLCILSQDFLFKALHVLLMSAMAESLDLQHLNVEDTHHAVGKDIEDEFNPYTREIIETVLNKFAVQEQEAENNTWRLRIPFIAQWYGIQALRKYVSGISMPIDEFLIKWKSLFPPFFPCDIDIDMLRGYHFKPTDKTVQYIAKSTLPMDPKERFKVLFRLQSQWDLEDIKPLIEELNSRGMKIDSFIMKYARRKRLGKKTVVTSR
The assay is described as above.

The target of assay [3] is T1, Ctf18 C-terminus (residues 666-741) (S. cerevisiae). As to the kind of experiment: co-purification of co-expressed recombinant complex (His-Trap, MonoQ, gel filtration; SDS-PAGE); Dcc1 deletions co-expressed with Ctf8 and His6-Ctf18^C; complexes purified in the same way as samples for crystallisation and shown on an SDS-PAGE gel. A general note: In gel filtration, larger molecules generally elute earlier.

Assay [4] concerns the target T3, Dcc1 with WH2 and WH3 deleted (S. cerevisiae) (UniProt P25559).
T3 sequence: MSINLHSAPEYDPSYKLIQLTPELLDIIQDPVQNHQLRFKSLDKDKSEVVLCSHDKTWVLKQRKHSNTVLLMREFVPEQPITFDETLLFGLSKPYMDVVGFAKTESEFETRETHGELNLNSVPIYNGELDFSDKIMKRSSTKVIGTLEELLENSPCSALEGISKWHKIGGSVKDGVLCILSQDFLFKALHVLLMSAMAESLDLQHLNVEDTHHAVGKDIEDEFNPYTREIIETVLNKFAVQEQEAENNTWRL
The description is as above.

Assay [5] has as its target T4, Dcc1 with WH3 deleted (S. cerevisiae) (UniProt P25559).
T4 sequence: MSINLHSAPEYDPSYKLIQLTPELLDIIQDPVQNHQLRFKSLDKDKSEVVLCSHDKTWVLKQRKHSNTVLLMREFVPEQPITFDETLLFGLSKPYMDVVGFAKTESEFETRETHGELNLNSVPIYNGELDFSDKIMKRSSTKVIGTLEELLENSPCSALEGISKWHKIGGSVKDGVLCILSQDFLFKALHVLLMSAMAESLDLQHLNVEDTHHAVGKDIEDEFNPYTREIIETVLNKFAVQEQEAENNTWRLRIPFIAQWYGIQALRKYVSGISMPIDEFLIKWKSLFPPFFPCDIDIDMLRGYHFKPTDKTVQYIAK
The assay is described as above.

Assay [6] addresses T5, Dcc1-Ctf8 heterodimer (S. cerevisiae) (UniProt P25559+P38877).
T5 sequence 1: T2 sequence
T5 sequence 2: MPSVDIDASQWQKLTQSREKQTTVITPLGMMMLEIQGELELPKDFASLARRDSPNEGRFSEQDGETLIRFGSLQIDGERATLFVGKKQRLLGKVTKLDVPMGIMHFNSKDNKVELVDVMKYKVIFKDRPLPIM
As to the kind of experiment: crystal structure; Ctf18^C-Dcc1-Ctf8 heterotrimer, co-expressed in E. coli and purified as a complex; crystals in 0.1 M Bis-Tris propane pH 6.3, 0.2 M NaBr, 17% PEG 3350, 20°C; 2.4 Å; both purified.

Results are given in words; binding and its absence hold for the method and conditions named. Some binding calls cover weakened binding; strength is not graded here.

B1: Ctf8 (full length) (protein, UniProt P38877 1-133)
chain: T5 sequence 2
As to B1, the binding result in assay [1], in assay [2], in assay [3], in assay [4] and in assay [5] was “binds” in each case.

B2: Dcc1 with WH3 deleted (domain or fragment, UniProt P25559 1-318)
chain: T4 sequence
Consider B2, for which the binding entry in assay [3] is on record as “binds”.

B3: Dcc1 (full length) (protein, UniProt P25559 1-380)
chain: T2 sequence
Regarding B3, the binding entry in assay [1] is recorded as “binds”.

B4: Ctf18 C-terminus (residues 666-741) (domain or fragment, UniProt P49956 666-741)
chain: T1 sequence
As for B4, the binding result in assay [6] is on record as “binds”.

B5: Dcc1 with WH2 and WH3 deleted (domain or fragment, UniProt P25559 1-252)
chain: T3 sequence
On to B5, for which the binding result in assay [3] is given as “binds”.

The values are drawn from PMC5376975, “Structural studies of RFCC tf18 reveal a novel chromatin recruitment role for Dcc1”.
